{"source": "patent EP2757103B1", "about": "“PYRROLIDINE-3-YLACETIC ACID DERIVATIVE” (Eisai R&D Management Co., Ltd., priority 2011, dated 2013)", "biological_target": "T1, CX3CR1 (Homo sapiens, UniProt P49238)", "T1 construct": "expressed in transfected cells; host or cells: B300 cells", "T1 sequence (P49238 1-355)": "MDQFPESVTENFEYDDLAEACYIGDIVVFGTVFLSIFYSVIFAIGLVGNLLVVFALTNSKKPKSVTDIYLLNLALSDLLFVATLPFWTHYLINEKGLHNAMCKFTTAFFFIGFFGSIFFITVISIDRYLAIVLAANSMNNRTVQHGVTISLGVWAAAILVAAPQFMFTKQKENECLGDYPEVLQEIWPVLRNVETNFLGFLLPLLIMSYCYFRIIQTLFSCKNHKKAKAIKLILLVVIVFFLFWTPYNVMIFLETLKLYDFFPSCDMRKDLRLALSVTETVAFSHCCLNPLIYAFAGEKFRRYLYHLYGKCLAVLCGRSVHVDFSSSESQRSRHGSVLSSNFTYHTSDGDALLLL", "assay": "Inhibition of cell migration in fractalkine-induced chemotaxis assay", "format": "cell-based", "details": "fractalkine-induced (0.3 nM) migration of CX3CR1-expressing B300 cells; preincubated with test compound for 30 minutes; Transwell, 3.5 hours at 37°C", "description": "The inhibitory effects of the example compounds on fractalkine-induced cell migration were examined using CX3CR1-transfected B300 cells\nAfter equilibrating the Transwell plate (24-well clusters, pore size: 5 µm, manufactured by Corning Incorporated), a fractalkine solution (0.3 nM, manufactured by R&D Systems, Inc.) was added to the lower wells. CX3CR1-expressing B300 cells which were preincubated with the test compound (0.001, 0.003, 0.01 or 0.03 µM) for 30 minutes were placed in the upper layer wells, followed by incubation under the condition of 5% CO2 for 3.5 hours at 37°C. The number of cells migrated to the lower wells was evaluated using CellTiter (manufactured by Promega Corporation).\nThe inhibitory rate of the test compound on fractalkine-induced cell migration was calculated by the following formula, where [A] is the number of migrated cells in the presence of both fractalkine and the test compound, [B] is the number of migrated cells in the presence of fractalkine and in the absence of the test compound, and [C] is the number of migrated cells in the absence of both fractalkine and the test compound; the 50% inhibitory concentration (IC50) was calculated based on the inhibitory rate. Inhibitory rate (%) = [1-{(A-C)/(B-C)}] × 100", "note": "For at least one compound, name, drawing or mass did not settle the structure.", "data": [{"smiles": "Cc1cccc(Cl)c1CN1C[C@H](C)[C@](CC(=O)O)(C(=O)NC2CCN(CC3=CCCC3)CC2)C1", "note": "[Example 8, 2-[(3S,4R)-1-[(2-Chloro-6-methylphenyl)methyl]-3-{[(1-cyclopent-1-en-1-ylmethyl)piperidin-4-yl]carbamoyl}-4-methylpyrrolidin-3-yl]acetic acid]", "values": [{"measurement": "IC50", "value": 31, "unit": "nM"}]}]}
